According to patent publication US20160235642A1, “Melanin Binding Agents for Targeted Topical Delivery” (AVON PRODUCTS, INC, priority 2013, published 2016):
At least one structure is not confirmed: it was looked up by name or label, or the drawing left a doubt.

Tests used:
[1] = Binding of compounds to free synthetic melanin (Example 3); settings: free synthetic melanin 50 μg/mL, compound 10 μM in PBS, 37° C., 1 hour; relative percentage of compound bound, measured spectrophotometrically from compound left in solution
Protocol: Free synthetic melanin was incubated with compounds of interest in order to determine relative binding affinity of various compounds of interest to melanin. Free synthetic melanin (50 μg/mL) and compounds of interest at 10 μM concentration in PBS were incubated at 37° C. for 1 hour. After 1 hour, the synthetic melanin was removed from the solution, and the relative concentrations of the compound left in solution (i.e., not bound to the melanin) were measured spectrophometrically.

[2] = Mixing of pigments with an aqueous solution of synthetic melanin (Example 1); format: binding; settings: mixed with an aqueous solution of synthetic melanin

CCCCCCCCCCCCCCCC[n+]1ccccc1 [Cetylpyridinium chloride]
% Melanin Bound [1]: 59.8%
behaviour of pigment and melanin on mixing (settling or suspension) [2]: the ceytlpyridinium chloride and melanin remained suspended
